{"source": "patent US8124390B2", "about": "“Aromatic prenyltransferases, nucleic acids encoding same and uses therefor” (The Salk Institute for Biological Studies, priority 2005, dated 2012)", "tested_on": "Orf2", "assay": "Detection of prenyltransferase activity of ORF2, TLC with UV 254 nm, incl. Mg2+ dependence", "format": "biochemical, Streptomyces sp. strain CL190", "conditions": "purified recombinant Orf2, prenyl donor DMAPP (C5), GPP (C10) or FPP (C15) with aromatic acceptors", "note": "At least one structure is not confirmed: it was looked up by name or label, or the drawing left a doubt.", "data": [{"smiles": "CC(C)=CCC/C(C)=C/CC/C(C)=C/CO[P@@](=O)(O)OP(=O)(O)O", "note": "(stereo in doubt) [FPP, farnesyl diphosphate]", "values": [{"measurement": "relative activity of Orf2 with prenyl donor", "result": "weak activity"}]}]}
